Taken from: PubChem BioAssay AID1508588 (Peter MacCallum Cancer Centre, 2020)
Test: 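Knock-downs boosting vemurafenib effects on melanoma cell growth or lactate release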 (primary screen). Cells: human WM266.4 melanoma cells (BRAF V600 mutant). Reagent: siRNA pool against human genes, 40 nM. Timing: 96 h from transfection to read-out. Treatment: vemurafenib 300 nM (about IC25), added 48 h after transfection, for 48 h; comparison arm got DMSO vehicle only. Read-out: 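Ratios to non-targeting siRNA for cell gain, counted as DAPI nuclei after minus before drug and averaged over two replicates, and for absorbance-read medium lactate per cell; both binned into fold-change classes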. Reading the numbers: cell gain with vemurafenib: higher = more cell gain than with non-targeting siRNA; lactate per cell with vemurafenib: higher = more lactate made per cell. Call rule: 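a knock-down counts as enhancing when its fold-change classes with vehicle and with vemurafenib, taken together, show a stronger drug effect on cell gain or lactate per cell; exact class pairs not stated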. Meaning of the calls: active = enhances vemurafenib effect; inactive = no enhancement seen.
This is one part, drawn at random, of about 18,000 reagents tested. 790 of all reagents (4.4%) were called active. 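Calls rest on a combination of fold-change classes in drug and vehicle arms, not all shown here.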 Entries without a mark were called inactive.

no.	target gene	PubChem SID	cell gain with vemurafenib	lactate per cell with vemurafenib
1	IRAK1 (interleukin 1 receptor associated kinase 1)	SID56478862	1.05	0.7
2	GTF2F1 (general transcription factor IIF subunit 1)	SID152155269	0.41	1.96
3	COPG1 (coat protein complex I subunit gamma 1)	SID134322947	-0.04	0.77
4	FOXH1 (forkhead box H1)	SID134313498	0.58	0.76
5	GPR174 (G protein-coupled receptor 174)	SID135621002	0.28	3.05
6	NCAM2 (neural cell adhesion molecule 2)	SID134315110	0.71	1.12
7	STRBP (spermatid perinuclear RNA binding protein)	SID135622951	0.59 (active)	0.14
8	FAM124A (family with sequence similarity 124 member A)	SID134322585	0.84	1.21
9	CYP21A2 (cytochrome P450 family 21 subfamily A member 2)	SID135621650	0.68	0.67
10	UBL3 (ubiquitin like 3)	SID134317038	0.68	0.63
11	WNK1 (WNK lysine deficient protein kinase 1)	SID134330010	-0.07 (active)	0.34
12	WNK1 (WNK lysine deficient protein kinase 1)	SID152148140	0.59	1.31
13	ZNF614 (zinc finger protein 614)	SID134318688	0.52	1.3
14	SLITRK4 (SLIT and NTRK like family member 4)	SID135623388	0.89	0.55
15	CSDC2 (cold shock domain containing C2)	SID152151116	0.16	0.55
16	PIP5KL1 (phosphatidylinositol-4-phosphate 5-kinase like 1)	SID56479217	0.22	1.81
17	PIGY (phosphatidylinositol glycan anchor biosynthesis class Y)	SID135622869	0.37	1.14
18	ECSIT (ECSIT signaling integrator)	SID134315268	0.34	1.17
19	PPP1R14D (protein phosphatase 1 regulatory inhibitor subunit 14D)	SID152147477	0.5	0.5
20	CPSF2 (cleavage and polyadenylation specific factor 2)	SID134317630	0.61	2.06
21	SARM1 (sterile alpha and TIR motif containing 1)	SID152154436	-0.21	2.02
22	SMG6 (SMG6 nonsense mediated mRNA decay factor)	SID152147464	0.5 (active)	0.04
23	IGFALS	SID135622017	0.25 (active)	0.36
24	SMC6 (structural maintenance of chromosomes 6)	SID152150183	1.14	0.92
25	KCNAB2	SID134314123	0.43	0.67
26	CABP5 (calcium binding protein 5)	SID134317467	0.44	0.4
27	PAICS	SID152147617	0.71	1.33
28	ANO9 (anoctamin 9)	SID135624594	0.51	1
29	DCAF10 (DDB1 and CUL4 associated factor 10)	SID152147433	0.47	1.01
30	PARD3 (par-3 family cell polarity regulator)	SID134319635	0.31	0.76
31	PGP (phosphoglycolate phosphatase)	SID152151815	0.48	1.08
32	MARCHF11 (membrane associated ring-CH-type finger 11)	SID135625334	0.69	0.42
33	LPXN (leupaxin)	SID134314463	0.96	0.99
34	GRM8 (glutamate metabotropic receptor 8)	SID134311063	1.05	0.84
35	TINAGL1 (tubulointerstitial nephritis antigen like 1)	SID134313249	0.9	0.71
36	ZNF432 (zinc finger protein 432)	SID134324045	0.51	0.58
37	CD83 (CD83 molecule)	SID152152861	0.7	1.1
38	TMEM38A (transmembrane protein 38A)	SID152149042	0.65	0.74
39	L3MBTL1 (L3MBTL histone methyl-lysine binding protein 1)	SID152153959	0.94	1.17
40	CMTM5 (CKLF like MARVEL transmembrane domain containing 5)	SID134315242	0.58	0.76
41	TFB2M (transcription factor B2, mitochondrial)	SID135622660	0.77	1.64
42	NPY2R (neuropeptide Y receptor Y2)	SID135621051	1.06	0.18
43	ACVR2B (activin A receptor type 2B)	SID135620907	0.63	1.29
44	HEPH (hephaestin)	SID135621789	0.92 (active)	0.32
45	TOP2B (DNA topoisomerase II beta)	SID135620799	0.48	1.98
46	ATOH8 (atonal bHLH transcription factor 8)	SID152154795	1.04	0.87
47	BRPF1 (bromodomain and PHD finger containing 1)	SID152153051	0.15	1.34

As entered above.
Value for ANO9 (anoctamin 9) [SID135624594] in “lactate per cell with vemurafenib”: 1
FAM124A (family with sequence similarity 124 member A) [SID134322585], cell gain with vemurafenib: 0.84
Entry of STRBP (spermatid perinuclear RNA binding protein) [SID135622951] under “lactate per cell with vemurafenib”: 0.14 (active)

Further results:
no.	target gene	PubChem SID	cell gain with vemurafenib	lactate per cell with vemurafenib
48	XRCC3 (X-ray repair cross complementing 3)	SID152151577	0.67	0.79
49	TRIM25 (tripartite motif containing 25)	SID134311904	0.48	1.81
50	ANK2 (ankyrin 2)	SID152150031	0.73	0.92
51	NDUFB11 (NADH:ubiquinone oxidoreductase subunit B11)	SID152149312	1.11	0.88
52	DDX6 (DEAD-box helicase 6)	SID134311758	0.43	1.07
53	ACTG1 (actin gamma 1)	SID134310837	0.4	1.25
54	ZSCAN31 (zinc finger and SCAN domain containing 31)	SID152147597	1.03	1.06
55	ARL10 (ARF like GTPase 10)	SID152150727	0.55	1.04
56	CELA2A (chymotrypsin like elastase 2A)	SID135621557	0.58 (active)	0.3
57	TMEM106C (transmembrane protein 106C)	SID134318449	0.9	0.9
58	ACTA1 (actin alpha 1, skeletal muscle)	SID134315551	1.42	0.54
59	RPL4 (ribosomal protein L4)	SID134313797	-0.06	2.83
60	XYLT2 (xylosyltransferase 2)	SID152153697	0.74	0.97
61	TIGD3 (tigger transposable element derived 3)	SID135623335	-0.03	1.32
62	GUCY1A1 (guanylate cyclase 1 soluble subunit alpha 1)	SID152154241	0.43	1.55
63	CDKL2 (cyclin dependent kinase like 2)	SID152156267	0.12	0.66
64	PRR13 (proline rich 13)	SID135624178	1.19	0.72
65	TNFRSF10A (TNF receptor superfamily member 10a)	SID152148817	0.94	0.38
66	CACNB2 (calcium voltage-gated channel auxiliary subunit beta 2)	SID135621635	0.99	0.46
67	CCDC144BP (coiled-coil domain containing 144B, pseudogene)	SID135623650	1.12	0.42
68	TYMSOS (TYMS opposite strand RNA)	SID135625384	0.42 (active)	0.52
69	CX3CR1 (C-X3-C motif chemokine receptor 1)	SID152148026	0.06	1.17
70	FAM153B (family with sequence similarity 153 member B)	SID135625431	1.07	0.88
71	POLR2J3 (RNA polymerase II subunit J3)	SID135625400	0.3	1.34
72	ZNF681 (zinc finger protein 681)	SID152150950	0.89	1.06
73	HSPA12B (heat shock protein family A (Hsp70) member 12B)	SID134321472	0.5	1.15
74	NNMT (nicotinamide N-methyltransferase)	SID152150116	0.53	1.29
75	MMD (monocyte to macrophage differentiation associated)	SID152152856	0.85	0.57
76	SYT2 (synaptotagmin 2)	SID134322647	0.95	0.5
77	SF3A1 (splicing factor 3a subunit 1)	SID152153214	0.15	1.44
78	SLC25A39	SID134312367	0.88	0.84
79	ATP9B (ATPase phospholipid transporting 9B)	SID134329716	1.02	0.48
80	CA6 (carbonic anhydrase 6)	SID135621896	0.55	1.03
81	TRIM6 (tripartite motif containing 6)	SID152148456	0.3	1.23
82	INHBE (inhibin subunit beta E)	SID134325015	0.23	0.6
83	CLDN11 (claudin 11)	SID135623712	0.95	1.05
84	SPACA5 (sperm acrosome associated 5)	SID135625041	0.73	0.68
